In publication PMC3707915:
Read-outs that look alike come from different tables or passages of the source. These are yes or no findings as the source states them, for the method shown. In cells and extracts the contact can be indirect. These calls come from enrichment with a bait or labelling near it, and not all partners need be listed.

Amino acid sequences for entries named in this document (tags omitted). A change or cut given only in a name is not applied to a line headed by its entry.
UniProt P39938: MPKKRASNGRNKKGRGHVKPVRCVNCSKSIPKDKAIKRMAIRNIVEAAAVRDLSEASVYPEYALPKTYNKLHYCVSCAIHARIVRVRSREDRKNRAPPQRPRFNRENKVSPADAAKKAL
UniProt P53742: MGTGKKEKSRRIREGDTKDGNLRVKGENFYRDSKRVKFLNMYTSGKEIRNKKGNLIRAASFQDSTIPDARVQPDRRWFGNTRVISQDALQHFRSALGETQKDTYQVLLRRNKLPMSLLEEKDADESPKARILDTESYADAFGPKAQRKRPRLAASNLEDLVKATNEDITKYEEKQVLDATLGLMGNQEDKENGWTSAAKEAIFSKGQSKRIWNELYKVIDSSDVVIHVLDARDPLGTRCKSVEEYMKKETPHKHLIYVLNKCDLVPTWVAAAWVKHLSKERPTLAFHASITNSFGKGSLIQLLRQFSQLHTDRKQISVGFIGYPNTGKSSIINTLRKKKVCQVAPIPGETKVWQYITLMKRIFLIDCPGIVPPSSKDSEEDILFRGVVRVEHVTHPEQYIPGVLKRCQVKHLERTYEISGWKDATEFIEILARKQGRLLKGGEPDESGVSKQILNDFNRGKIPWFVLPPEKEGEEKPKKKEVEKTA
UniProt P04449: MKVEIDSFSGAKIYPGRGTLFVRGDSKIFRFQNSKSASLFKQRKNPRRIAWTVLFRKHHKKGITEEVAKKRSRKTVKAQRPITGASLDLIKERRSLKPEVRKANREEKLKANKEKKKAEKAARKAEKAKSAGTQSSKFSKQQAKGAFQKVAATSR
UniProt P0CX27: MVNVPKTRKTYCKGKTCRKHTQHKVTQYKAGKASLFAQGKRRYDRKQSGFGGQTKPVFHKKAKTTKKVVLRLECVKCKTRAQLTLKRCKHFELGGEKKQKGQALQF
UniProt Q12522: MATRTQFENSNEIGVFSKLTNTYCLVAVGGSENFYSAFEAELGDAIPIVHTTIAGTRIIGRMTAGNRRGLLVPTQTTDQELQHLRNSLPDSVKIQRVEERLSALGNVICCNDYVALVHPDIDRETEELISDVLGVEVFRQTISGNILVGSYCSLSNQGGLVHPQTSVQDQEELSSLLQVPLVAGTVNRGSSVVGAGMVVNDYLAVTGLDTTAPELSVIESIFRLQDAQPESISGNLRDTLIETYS
UniProt Q12019: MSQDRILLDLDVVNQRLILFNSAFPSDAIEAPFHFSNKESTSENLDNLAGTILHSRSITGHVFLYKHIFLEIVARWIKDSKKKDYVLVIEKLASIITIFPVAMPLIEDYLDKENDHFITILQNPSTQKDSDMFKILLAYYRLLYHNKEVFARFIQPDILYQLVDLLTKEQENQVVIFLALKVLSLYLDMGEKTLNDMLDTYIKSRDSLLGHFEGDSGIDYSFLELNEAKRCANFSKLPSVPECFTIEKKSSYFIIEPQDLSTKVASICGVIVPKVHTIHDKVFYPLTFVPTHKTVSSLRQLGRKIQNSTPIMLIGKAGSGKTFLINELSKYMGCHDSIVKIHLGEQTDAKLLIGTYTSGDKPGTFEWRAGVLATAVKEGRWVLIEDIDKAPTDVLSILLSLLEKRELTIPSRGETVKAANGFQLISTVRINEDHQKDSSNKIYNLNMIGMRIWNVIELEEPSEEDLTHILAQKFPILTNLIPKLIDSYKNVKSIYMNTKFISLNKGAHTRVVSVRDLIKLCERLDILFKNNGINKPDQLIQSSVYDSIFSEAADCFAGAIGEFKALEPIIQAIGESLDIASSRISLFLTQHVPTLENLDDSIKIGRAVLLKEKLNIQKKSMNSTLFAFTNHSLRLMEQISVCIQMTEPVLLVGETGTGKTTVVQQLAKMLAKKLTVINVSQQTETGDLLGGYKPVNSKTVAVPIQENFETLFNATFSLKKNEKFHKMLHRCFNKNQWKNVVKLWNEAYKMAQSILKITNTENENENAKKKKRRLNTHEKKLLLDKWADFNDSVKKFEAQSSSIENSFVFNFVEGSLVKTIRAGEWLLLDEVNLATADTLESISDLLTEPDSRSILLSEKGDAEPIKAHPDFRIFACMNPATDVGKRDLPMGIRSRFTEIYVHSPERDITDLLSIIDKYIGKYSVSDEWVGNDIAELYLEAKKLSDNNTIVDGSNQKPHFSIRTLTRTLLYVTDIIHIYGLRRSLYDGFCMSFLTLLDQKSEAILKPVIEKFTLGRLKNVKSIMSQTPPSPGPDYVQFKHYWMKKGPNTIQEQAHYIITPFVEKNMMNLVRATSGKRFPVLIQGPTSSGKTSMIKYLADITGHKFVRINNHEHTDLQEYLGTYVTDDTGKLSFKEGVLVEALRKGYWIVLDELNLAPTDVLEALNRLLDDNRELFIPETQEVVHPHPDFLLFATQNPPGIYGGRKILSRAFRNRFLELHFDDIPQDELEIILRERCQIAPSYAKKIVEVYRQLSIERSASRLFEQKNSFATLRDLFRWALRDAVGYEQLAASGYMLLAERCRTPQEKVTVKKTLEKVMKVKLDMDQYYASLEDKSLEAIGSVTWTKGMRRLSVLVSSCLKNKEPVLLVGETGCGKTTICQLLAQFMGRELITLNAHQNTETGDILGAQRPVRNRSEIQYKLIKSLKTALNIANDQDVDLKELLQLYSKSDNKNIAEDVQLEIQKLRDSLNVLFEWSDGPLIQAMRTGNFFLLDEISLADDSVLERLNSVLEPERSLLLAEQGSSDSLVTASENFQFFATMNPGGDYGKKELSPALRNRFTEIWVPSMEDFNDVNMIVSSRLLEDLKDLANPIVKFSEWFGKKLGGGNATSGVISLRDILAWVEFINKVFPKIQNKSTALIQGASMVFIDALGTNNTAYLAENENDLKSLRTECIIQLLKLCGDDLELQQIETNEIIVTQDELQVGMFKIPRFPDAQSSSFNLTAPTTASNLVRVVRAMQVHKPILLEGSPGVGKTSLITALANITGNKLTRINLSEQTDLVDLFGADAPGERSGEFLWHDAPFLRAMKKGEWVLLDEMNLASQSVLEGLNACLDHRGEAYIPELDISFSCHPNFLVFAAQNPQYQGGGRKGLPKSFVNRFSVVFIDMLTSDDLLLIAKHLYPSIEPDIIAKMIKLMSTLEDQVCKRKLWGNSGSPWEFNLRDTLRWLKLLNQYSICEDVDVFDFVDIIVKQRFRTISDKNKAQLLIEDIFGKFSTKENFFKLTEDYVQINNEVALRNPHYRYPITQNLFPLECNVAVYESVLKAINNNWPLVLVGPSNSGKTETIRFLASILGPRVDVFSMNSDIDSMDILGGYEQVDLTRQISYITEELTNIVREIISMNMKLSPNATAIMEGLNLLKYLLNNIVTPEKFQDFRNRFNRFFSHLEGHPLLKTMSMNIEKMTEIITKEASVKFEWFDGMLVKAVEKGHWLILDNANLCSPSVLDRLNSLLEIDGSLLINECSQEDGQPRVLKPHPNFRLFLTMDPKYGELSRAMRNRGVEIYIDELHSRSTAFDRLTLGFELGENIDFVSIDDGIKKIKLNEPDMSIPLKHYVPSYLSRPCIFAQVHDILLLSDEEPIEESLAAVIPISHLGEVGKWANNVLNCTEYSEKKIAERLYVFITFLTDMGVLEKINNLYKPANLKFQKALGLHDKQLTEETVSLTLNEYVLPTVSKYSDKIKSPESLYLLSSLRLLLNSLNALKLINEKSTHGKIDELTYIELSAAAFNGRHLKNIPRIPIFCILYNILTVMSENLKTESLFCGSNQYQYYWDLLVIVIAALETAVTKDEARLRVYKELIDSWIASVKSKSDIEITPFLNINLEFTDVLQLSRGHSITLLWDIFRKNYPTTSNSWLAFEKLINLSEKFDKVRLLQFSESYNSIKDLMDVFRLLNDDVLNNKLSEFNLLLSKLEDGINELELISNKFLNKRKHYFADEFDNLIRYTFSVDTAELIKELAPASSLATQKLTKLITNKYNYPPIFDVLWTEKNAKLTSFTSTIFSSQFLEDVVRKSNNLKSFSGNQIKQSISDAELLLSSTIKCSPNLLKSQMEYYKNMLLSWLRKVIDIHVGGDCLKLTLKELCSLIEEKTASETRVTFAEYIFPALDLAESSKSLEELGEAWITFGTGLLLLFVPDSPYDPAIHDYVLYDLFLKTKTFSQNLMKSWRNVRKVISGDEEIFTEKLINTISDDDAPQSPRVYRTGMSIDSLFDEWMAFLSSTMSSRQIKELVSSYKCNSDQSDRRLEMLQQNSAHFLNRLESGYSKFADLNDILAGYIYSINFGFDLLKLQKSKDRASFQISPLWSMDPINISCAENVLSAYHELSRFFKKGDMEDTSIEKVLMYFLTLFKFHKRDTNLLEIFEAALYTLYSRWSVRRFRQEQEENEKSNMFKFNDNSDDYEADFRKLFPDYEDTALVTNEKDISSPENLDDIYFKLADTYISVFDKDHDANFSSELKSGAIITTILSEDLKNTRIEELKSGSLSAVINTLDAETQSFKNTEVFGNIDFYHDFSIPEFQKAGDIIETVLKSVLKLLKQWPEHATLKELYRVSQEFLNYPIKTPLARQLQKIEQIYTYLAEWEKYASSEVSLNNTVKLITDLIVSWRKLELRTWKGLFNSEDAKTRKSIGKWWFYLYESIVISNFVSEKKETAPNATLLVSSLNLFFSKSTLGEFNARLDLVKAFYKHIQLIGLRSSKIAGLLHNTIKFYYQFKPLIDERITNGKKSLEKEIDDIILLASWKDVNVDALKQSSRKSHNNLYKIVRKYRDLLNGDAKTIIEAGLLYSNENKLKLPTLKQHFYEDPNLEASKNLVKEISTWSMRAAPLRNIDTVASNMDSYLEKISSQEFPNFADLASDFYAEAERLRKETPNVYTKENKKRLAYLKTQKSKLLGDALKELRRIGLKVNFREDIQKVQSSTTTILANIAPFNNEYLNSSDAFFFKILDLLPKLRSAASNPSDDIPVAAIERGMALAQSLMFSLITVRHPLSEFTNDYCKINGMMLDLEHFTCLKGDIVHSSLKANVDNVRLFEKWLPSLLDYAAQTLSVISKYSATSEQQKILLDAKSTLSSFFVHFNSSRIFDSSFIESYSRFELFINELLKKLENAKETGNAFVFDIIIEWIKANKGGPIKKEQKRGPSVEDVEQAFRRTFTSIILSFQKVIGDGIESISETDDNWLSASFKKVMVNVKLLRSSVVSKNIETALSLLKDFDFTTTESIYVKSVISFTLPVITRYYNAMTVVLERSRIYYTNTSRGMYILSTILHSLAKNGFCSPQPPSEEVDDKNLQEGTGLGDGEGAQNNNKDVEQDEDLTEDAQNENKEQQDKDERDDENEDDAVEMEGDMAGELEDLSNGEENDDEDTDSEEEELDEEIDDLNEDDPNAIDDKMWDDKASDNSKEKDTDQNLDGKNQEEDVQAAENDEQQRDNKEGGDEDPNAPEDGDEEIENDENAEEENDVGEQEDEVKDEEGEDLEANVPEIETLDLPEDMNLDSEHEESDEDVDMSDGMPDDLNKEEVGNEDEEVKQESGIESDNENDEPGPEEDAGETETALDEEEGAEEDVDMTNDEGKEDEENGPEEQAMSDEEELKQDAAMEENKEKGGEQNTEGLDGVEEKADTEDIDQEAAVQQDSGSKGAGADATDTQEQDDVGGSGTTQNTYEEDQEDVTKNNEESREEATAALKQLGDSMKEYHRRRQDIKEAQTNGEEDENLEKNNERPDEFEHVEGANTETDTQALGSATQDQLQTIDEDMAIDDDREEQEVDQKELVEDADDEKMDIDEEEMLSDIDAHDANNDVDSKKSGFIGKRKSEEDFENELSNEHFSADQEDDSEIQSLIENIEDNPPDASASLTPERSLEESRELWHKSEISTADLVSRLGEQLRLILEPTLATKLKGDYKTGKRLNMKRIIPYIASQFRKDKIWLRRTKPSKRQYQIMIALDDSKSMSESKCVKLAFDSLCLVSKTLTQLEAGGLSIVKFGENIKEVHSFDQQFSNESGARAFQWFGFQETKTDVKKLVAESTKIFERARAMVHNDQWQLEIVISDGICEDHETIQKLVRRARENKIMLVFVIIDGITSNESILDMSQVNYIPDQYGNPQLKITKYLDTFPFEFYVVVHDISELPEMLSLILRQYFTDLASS
UniProt P05747: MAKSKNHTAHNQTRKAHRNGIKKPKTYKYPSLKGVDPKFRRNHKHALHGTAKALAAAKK
UniProt Q07915: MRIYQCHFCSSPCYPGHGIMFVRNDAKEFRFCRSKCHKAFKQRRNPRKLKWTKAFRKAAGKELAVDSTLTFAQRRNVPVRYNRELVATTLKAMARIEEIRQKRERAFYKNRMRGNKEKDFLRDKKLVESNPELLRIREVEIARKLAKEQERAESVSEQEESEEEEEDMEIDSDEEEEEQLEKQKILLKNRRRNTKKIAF

T1: Arx1-TAP (S. cerevisiae) (UniProt Q03862)
T1 sequence: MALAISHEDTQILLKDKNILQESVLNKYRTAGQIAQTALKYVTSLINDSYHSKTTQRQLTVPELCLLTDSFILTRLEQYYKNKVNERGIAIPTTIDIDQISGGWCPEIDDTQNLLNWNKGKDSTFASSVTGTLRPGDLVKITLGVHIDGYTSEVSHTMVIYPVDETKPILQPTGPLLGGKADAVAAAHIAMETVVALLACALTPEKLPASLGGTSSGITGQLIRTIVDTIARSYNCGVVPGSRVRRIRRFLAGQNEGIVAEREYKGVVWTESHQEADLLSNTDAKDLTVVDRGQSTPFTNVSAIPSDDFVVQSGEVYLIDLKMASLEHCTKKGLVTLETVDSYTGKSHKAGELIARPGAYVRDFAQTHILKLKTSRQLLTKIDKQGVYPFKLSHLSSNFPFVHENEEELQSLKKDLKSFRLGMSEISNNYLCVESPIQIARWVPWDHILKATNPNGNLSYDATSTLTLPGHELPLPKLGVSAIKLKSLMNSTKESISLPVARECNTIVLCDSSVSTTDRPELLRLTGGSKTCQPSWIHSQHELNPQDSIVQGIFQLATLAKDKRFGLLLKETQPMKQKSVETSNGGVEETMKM

T2: Nog1-TAP (S. cerevisiae) (UniProt Q02892)
T2 sequence: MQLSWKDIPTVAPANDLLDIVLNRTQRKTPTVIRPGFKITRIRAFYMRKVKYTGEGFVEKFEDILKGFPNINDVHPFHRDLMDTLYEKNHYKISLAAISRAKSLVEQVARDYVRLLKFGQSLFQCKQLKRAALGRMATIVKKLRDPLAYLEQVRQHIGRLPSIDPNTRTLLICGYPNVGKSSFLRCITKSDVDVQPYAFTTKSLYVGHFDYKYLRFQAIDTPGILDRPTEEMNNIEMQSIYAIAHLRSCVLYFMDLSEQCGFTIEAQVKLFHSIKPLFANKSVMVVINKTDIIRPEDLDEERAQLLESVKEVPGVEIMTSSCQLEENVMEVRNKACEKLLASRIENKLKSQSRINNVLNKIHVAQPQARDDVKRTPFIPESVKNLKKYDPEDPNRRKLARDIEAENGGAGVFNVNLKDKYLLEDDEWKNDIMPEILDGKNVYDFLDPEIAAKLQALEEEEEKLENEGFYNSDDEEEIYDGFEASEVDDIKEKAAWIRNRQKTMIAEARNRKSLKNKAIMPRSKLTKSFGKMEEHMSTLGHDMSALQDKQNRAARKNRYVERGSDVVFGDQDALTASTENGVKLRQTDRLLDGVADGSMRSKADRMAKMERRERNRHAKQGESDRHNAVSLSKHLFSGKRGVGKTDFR

T3: Rsa4-TAP (S. cerevisiae) (UniProt P25382)
T3 sequence: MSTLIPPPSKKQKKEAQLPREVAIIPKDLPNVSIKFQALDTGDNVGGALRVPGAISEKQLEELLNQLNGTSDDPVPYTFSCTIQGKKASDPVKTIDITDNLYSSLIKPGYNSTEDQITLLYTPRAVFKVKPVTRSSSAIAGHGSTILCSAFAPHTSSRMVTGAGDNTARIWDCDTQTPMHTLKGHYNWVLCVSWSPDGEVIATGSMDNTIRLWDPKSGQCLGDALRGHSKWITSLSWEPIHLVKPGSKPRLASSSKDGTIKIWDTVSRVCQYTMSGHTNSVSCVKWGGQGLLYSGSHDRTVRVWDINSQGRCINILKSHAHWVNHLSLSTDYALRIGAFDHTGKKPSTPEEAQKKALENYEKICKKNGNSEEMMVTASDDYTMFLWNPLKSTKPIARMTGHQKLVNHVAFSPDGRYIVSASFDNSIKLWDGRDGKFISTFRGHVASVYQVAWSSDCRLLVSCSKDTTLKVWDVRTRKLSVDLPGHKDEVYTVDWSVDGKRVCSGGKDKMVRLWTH

T4: Noc2-TAP (S. cerevisiae) (UniProt P39744)
T4 sequence: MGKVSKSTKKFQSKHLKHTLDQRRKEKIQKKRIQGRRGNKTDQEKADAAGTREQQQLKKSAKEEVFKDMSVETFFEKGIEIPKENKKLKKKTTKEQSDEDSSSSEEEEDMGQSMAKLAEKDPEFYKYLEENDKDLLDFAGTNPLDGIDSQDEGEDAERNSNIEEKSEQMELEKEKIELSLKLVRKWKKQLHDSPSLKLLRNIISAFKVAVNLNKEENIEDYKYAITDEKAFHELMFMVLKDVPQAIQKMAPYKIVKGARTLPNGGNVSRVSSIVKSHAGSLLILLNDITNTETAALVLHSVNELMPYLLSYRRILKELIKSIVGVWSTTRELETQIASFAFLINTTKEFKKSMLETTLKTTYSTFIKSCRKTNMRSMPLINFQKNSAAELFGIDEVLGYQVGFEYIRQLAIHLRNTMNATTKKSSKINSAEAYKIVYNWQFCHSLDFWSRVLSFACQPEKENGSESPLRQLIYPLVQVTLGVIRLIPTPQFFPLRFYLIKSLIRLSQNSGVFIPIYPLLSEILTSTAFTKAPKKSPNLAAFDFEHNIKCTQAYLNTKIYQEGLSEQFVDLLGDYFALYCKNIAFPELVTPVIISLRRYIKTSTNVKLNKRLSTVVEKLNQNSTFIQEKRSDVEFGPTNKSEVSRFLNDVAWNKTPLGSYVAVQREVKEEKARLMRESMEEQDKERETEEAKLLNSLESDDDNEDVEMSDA

B1: Ebp2 (protein, UniProt P36049 1-427)
chain: MAKGFKLKELLSHQKEIEKAEKLENDLKKKKSQELKKEEPTIVTASNLKKLEKKEKKADVKKEVAADTEEYQSQALSKKEKRKLKKELKKMQEQDATEAQKHMSGDEDESGDDREEEEEEEEEEEGRLDLEKLAKSDSESEDDSESENDSEEDEDVVAKEESEEKEEQEEEQDVPLSDVEFDSDADVVPHHKLTVNNTKAMKHALERVQLPWKKHSFQEHQSVTSETNTDEHIKDIYDDTERELAFYKQSLDAVLVARDELKRLKVPFKRPLDYFAEMVKSDEHMDKIKGKLIEEASDKKAREEARRQRQLKKFGKQVQNATLQKRQLEKRETLEKIKSLKNKRKHNEIDHSEFNVGVEEEVEGKRFDRGRPNGKRAAKNAKYGQGGMKRFKRKNDATSSADVSGFSSRKMKGKTNRPGKSRRARRF
B2: Brx1 (protein, UniProt Q08235 1-291)
chain: MSSIYKALAGKSKDNKSEKKQGNVKQFMNKQRTLLISSRGVNYRHRHLIQDLSGLLPHSRKEPKLDTKKDLQQLNEIAELYNCNNVLFFEARKHQDLYLWLSKPPNGPTIKFYIQNLHTMDELNFTGNCLKGSRPVLSFDQRFESSPHYQLIKELLVHNFGVPPNARKSKPFIDHVMSFSIVDDKIWVRTYEISHSTKNKEEYEDGEEDISLVEIGPRFVMTVILILEGSFGGPKIYENKQYVSPNVVRAQIKQQAAEEAKSRAEAAVERKIKRRENVLAADPLSNDALFK

Legend:
[1] = target: rpS26-FLAG (S. cerevisiae) (UniProt P39938); test: affinity purification with mass spectrometry; rpS26-FLAG and associated 80S ribosomes purified in one step from total yeast cellular extract on anti-FLAG M2 sepharose beads, 1 h at 4°C, MB buffer with 0.5% Triton X-100 and 0.1% Tween; eluates compared pair wise with LSU precursor particles by semi-quantitative LC-MS/MS with iTRAQ reagents
Arx1-TAP (S. cerevisiae) = target: T1, Arx1-TAP (S. cerevisiae); test: affinity purification with mass spectrometry; TAP-tagged LSU biogenesis factor and associated pre-ribosomal particles purified in one step from total yeast cellular extract on rabbit IgG coupled magnetic beads, 1 h at 4°C, MB buffer (20 mM Tris HCl pH 8, 200 or 300 mM KCl, 5 mM MgOAc) with 0.5% Triton X-100 and 0.1% Tween 20; eluates compared pair wise by semi-quantitative LC-MS/MS with iTRAQ reagents; for Nog1-, Nog2- and Rsa4-TAP wild type against strains in which RPL25, RPL2, RPL43 or RPL21 was shut down for 4 h in glucose
Nog2-TAP (S. cerevisiae) = Nog2-TAP (S. cerevisiae) (UniProt P53742); test: as above
Nog1-TAP (S. cerevisiae) [2] = target: T2, Nog1-TAP (S. cerevisiae); test: as above
Rsa4-TAP (S. cerevisiae) = target: T3, Rsa4-TAP (S. cerevisiae); test: as above
Noc2-TAP (S. cerevisiae) = target: T4, Noc2-TAP (S. cerevisiae); test: as above
Nog1-TAP (S. cerevisiae) [3] = target: T2, Nog1-TAP (S. cerevisiae); test: as above; remark: listed apart in the source

Molecule | binding [1] | binding (Arx1-TAP (S. cerevisiae)) | binding (Nog2-TAP (S. cerevisiae)) | binding (Rsa4-TAP (S. cerevisiae)) | also measured
rpL24 (from UniProt P04449) | binds | binds | binds | binds | binding (Nog1-TAP (S. cerevisiae) [2]): binds
rpL42 (from UniProt P0CX27 1-106) | binds | binds | – | – | –
Tif6 (from UniProt Q12522 1-245) | – | – | binds | – | –
rpL21 (S. cerevisiae) | – | – | – | binds | binding (Nog1-TAP (S. cerevisiae) [2]): binds
Rea1 (from UniProt Q12019 1-4910) | – | – | binds | – | –
rpL29 (from UniProt P05747 1-59) | binds | binds | binds | – | –
Rlp24 (from UniProt Q07915 1-199) | – | – | binds | – | –
rpL40 (S. cerevisiae) | – | binds | – | binds | –
B1 | – | – | – | – | binding (Noc2-TAP (S. cerevisiae)): binds
B2 | – | – | – | – | binding (Noc2-TAP (S. cerevisiae)): binds; binding (Nog1-TAP (S. cerevisiae) [3]): binds
